From PubChem BioAssay AID1487 (National Center for Advancing Translational Sciences (NCATS), 2009)
“And” between values parts separate entries of the source, which are not always exact repeats. Equal entries are not always repeated. The list shows a part of the results. Shown are side measurements of this screen, not its main read-out; they come without a call. Most of these compounds were active or inconclusive in the main read-out, so they are no random draw. Potencies come from curve fits of mixed quality, noted in brackets.

Test: qHTS Assay for Modulators of Lamin A Splicing
Conditions: HeLa LMNA splicing GFP/RFP minigene ratio, 48 h
Outline: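 S3 HeLa stable clones carrying a lamin A-EGFP splicing minigene plus DsRed2 were seeded at 600 cells/well in Opti-MEM with 2% FBS, pin-dosed and incubated 48 h at 37°C. Acumen cytometry (488 nm) gave the GFP/RFP total-intensity ratio.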

[1] = measured here: GFP splicing reporter channel
[2] = measured here: RFP viability control channel

| SMILES | AC50 [1] | AC50 [2] |
| --- | --- | --- |
| COc1ccc2c(c1)c(CC(=O)O)c(C)n2C(=O)c1ccc(Cl)cc1 | 0.00501 µM [falling, full curve, poor fit] | 1.58 µM [rising, full curve] and 11.2 µM [rising, single point] |
| CCOC(=O)c1c(-c2ccccc2)csc1NC(=O)/C(C#N)=C/c1ccc(O)c(OC)c1 | 25.1 µM [falling, partial curve] | 20 µM [falling, single point] |
| C=CCn1c(=O)c2c(C)c(C)sc2n2c(Nc3ccccc3)nnc12 | 2 µM [rising, partial curve] | 1.58 µM [rising, partial curve, poor fit] |
| CCN(CC)S(=O)(=O)c1ccc(C(=O)Nc2ccc3c(c2)OCCO3)cc1 |  | 10 µM [rising, partial curve] |
| COc1ccc(N(C)C(=O)c2cc3c(Cl)nc4ccccc4c3s2)cc1 | 35.5 µM [rising, single point] | 12.6 µM [rising, partial curve] |
| CCOC(=O)C(CC)Sc1nnc2c3cc(C)ccc3n(C)c2n1 (stereo not drawn) | 12.6 µM [rising, partial curve] | 20 µM [rising, partial curve] |
| COc1ccc(C)cc1N(C(=O)c1ccccc1F)c1nc2ccccc2s1 | 7.08 µM [rising, full curve, poor fit] |  |
| CC1CCCN(S(=O)(=O)c2ccc(Br)s2)C1 (stereo not drawn) | 0.0891 µM [falling, partial curve] | 0.398 µM [falling, partial curve] |
| CC(C)(C)n1[nH]c2c3c(ccc2c1=O)C(=O)c1ccccc1C3=O |  | 5.62 µM [rising, partial curve] |
| C=CCCC(=O)Nc1nc(C)c(-c2csc(Nc3ccccc3OC)n2)s1 | 20 µM [rising, single point] |  |
| Cn1c(Cn2nnc3ccccc32)nnc1SCC(=O)N1c2ccccc2Sc2ccccc21 | 6.31 µM [rising, single point] | 7.08 µM [rising, full curve] |
| COc1ccc(S(=O)(=O)Nc2ccc(C)cc2)cc1N(C)S(=O)(=O)c1ccc(Cl)cc1 |  | 15.8 µM [falling, partial curve, poor fit] |
| O=C(O)c1ccc(NC(=O)c2cn(-c3ccccc3)nc2-c2ccc(Cl)cc2)cc1 | 5.01 µM [falling, partial curve, poor fit] |  |
| Cc1ccc(C(O)CN2C3=NCCCN3c3ccccc32)cc1 (stereo not drawn) |  | 2.51 µM [rising, single point] |
| Cc1cc(C)c(NC(=O)C(C)n2nc(-c3ccc(C)c(C)c3)ccc2=O)c(C)c1 (stereo not drawn) |  | 35.5 µM [falling, single point] |
| CCOC(=O)c1cc(-c2ccccc2)n(CCCC(=O)Nc2ccc(C(C)C)cc2)c1C | 35.5 µM [falling, single point] | 0.141 µM [falling, full curve, poor fit] |
| COc1cc(/C=C/C(=O)O)cc(S(=O)(=O)N2CCc3ccccc32)c1OC | 35.5 µM [falling, partial curve] | 22.4 µM [falling, single point] |
| O[C@H]1COC2C1OC[C@@H]2O (stereo partly drawn) | 35.5 µM [rising, single point] | 0.794 µM [rising, partial curve, poor fit] |
| CCCNC(=S)Nc1cccc(C(F)(F)F)c1 | 7.08 µM [rising, partial curve] | 10 µM [rising, partial curve, poor fit] |
| CCc1ccccc1NC(=O)c1ccc(CN2CCC(Cc3ccccc3)CC2)cc1 | 1 µM [falling, single point] | 0.0316 µM [falling, single point] |
| COc1ccc(C(=O)CN2CCN(S(=O)(=O)c3cccc([N+](=O)[O-])c3)CC2)cc1OC | 22.4 µM [falling, partial curve] | 28.2 µM [falling, single point] |
| CN(Cc1ccco1)c1cc(-c2ccccc2C(F)(F)F)ncn1 | 35.5 µM [falling, single point] | 35.5 µM [falling, single point] |
| CCOc1ccccc1NC(=S)N(Cc1cc2ccc(C)cc2[nH]c1=O)CC1CCCN1CC (stereo not drawn) |  | 4.47 µM [rising, full curve, poor fit] |
| CC(=O)N1N=C(c2ccc(C)cc2)OC1c1cccnc1 (stereo not drawn) | 0.00316 µM [rising, full curve, poor fit] |  |
| Cc1noc(C)c1-c1nc(N2CCN(C)CC2)c2ccccc2n1 | 22.4 µM [falling, partial curve] |  |
| S=c1[nH]nc(C2CCCCC2)n1/N=C/C(Cl)=C\c1ccccc1 | 35.5 µM [falling, single point] | 35.5 µM [falling, single point] |

| SMILES | AC50 [1] | AC50 [2] |
| --- | --- | --- |
| CC1=CN2C(=N)/C(=C/c3ccc(Sc4ccc(Cl)cc4)o3)C(=O)N=C2S1 |  | 11.2 µM [rising, partial curve] |
| O=S(=O)(c1ccc(F)cc1)N1CCC(O)(c2ccc3c(c2)OCO3)CC1 | 35.5 µM [rising, single point] | 31.6 µM [rising, single point] |
| CCOC(=O)C1CCN(C(=O)CCS(=O)(=O)c2cc3c(cc2Cl)NC(=O)CO3)CC1 | 14.1 µM [falling, single point] |  |
| COC(=O)c1ccccc1NC(=O)Cc1nc(-c2ccccc2)sc1-c1ccc(C)cc1 |  | 22.4 µM [rising, single point] |
| CN1Cc2c(N3CCOCC3)nc(SCc3ccccc3)c(C#N)c2CC1(C)C |  | 3.55 µM [rising, partial curve] |
| Cc1ccc(C)c(OCC(=O)Nc2ccc(N3CCOCC3)cc2)c1 | 1.12 µM [falling, partial curve] | 15.8 µM [falling, partial curve, poor fit] |
| CCC(=O)c1ccccc1OCCSc1nc(C)cc(=O)[nH]1 | 35.5 µM [falling, single point] |  |
| CS(=O)(=O)N1CCN(C(=O)c2cc(-c3cccnc3)nc3ccc(Br)cc23)CC1 |  | 7.94 µM [rising, partial curve] |
| O=C(N/N=C/c1ccccc1)c1ccc(N2CCOCC2)c([N+](=O)[O-])c1 | 0.355 µM [falling, partial curve, poor fit] | 5.62 µM [falling, single point] |
| O=C(c1ccc(Cn2cc(Cl)cn2)cc1)N1CCN(c2ccccc2)CC1 | 8.91 µM [rising, partial curve, poor fit] | 35.5 µM [rising, single point] |
| O=C(NNc1c(Cl)cc(Cl)cc1Cl)c1cccc([N+](=O)[O-])c1 |  | 7.94 µM [rising, partial curve, poor fit] |
| NC(=S)N=Nc1c(O)n(CCCl)c2ccccc12 | 35.5 µM [rising, single point] |  |
| Fc1cccc(Cl)c1-c1nnc2ccc3ccccc3n12 | 22.4 µM [falling, single point] |  |
| O=C(O)CCCCCN1C(=O)/C(=C\c2ccncc2)SC1=S | 17.8 µM [rising, single point] | 22.4 µM [rising, single point] |
| COc1ccccc1CNC(=O)c1oc2ccc(S(=O)(=O)N3CCCCC3)cc2c1C | 0.316 µM [falling, partial curve, poor fit] | 0.631 µM [falling, full curve] |
| CCOc1ncccc1C(=O)Oc1ccc2c(c1)OCO2 |  | 25.1 µM [rising, single point] |
| NC(=O)c1ccc(C(F)(F)F)n(Cc2ccc(Cl)cc2)c1=O | 35.5 µM [rising, single point] | 35.5 µM [rising, single point] |
| COc1cc(O)sc1C=Nc1ccc(Cl)cc1Cl | 5.62 µM [rising, single point] |  |
| O=C(Cc1csc(-c2ccccc2)n1)Nc1ccc(C(F)(F)F)cc1 | 11.2 µM [rising, partial curve, poor fit] | 12.6 µM [rising, partial curve] |
| CCc1ccc(C2c3[nH]c4ccccc4c3CCN2C(=O)c2ccc(=O)n(C)n2)cc1 (stereo not drawn) | 0.0316 µM [rising, full curve, poor fit] | 15.8 µM [falling, single point] |
| Cc1ccc2c(N)c(C)ccc2c1 |  | 7.08 µM [rising, partial curve, poor fit] |
| CCc1cc2c(=O)n(Cc3ccco3)c(SCc3c(C)noc3C)nc2s1 |  | 7.94 µM [rising, partial curve] |
| CCOC(=O)c1c(C)oc2ccc(NS(=O)(=O)c3ccc4c5c(cccc35)C(=O)N4)cc12 | 12.6 µM [rising, single point] | 35.5 µM [rising, single point] |
| O=C(CCCC(=O)N(CC(=O)NC1CCCC1)C1CCCC1)Nc1ccccn1 |  | 35.5 µM [rising, single point] |
| CCN1CCC[C@@H](OC(=O)C(c2ccccc2)c2ccccc2)C1 | 0.316 µM [falling, single point] |  |
| CCOC(=O)C1=NN(C(C)=O)C2(CC(=O)N(c3ccc(C)c(C)c3)C2=O)C1 (stereo not drawn) | 5.01 µM [rising, full curve] | 3.98 µM [rising, full curve, poor fit] |

Arranged by molar mass (high to low): part of the list above

| SMILES | AC50 [1] | AC50 [2] |
| --- | --- | --- |
| CS(=O)(=O)N1CCN(C(=O)c2cc(-c3cccnc3)nc3ccc(Br)cc23)CC1 |  | 7.94 µM [rising, partial curve] |
| CCOC(=O)C1CCN(C(=O)CCS(=O)(=O)c2cc3c(cc2Cl)NC(=O)CO3)CC1 | 14.1 µM [falling, single point] |  |
| CCOC(=O)c1c(C)oc2ccc(NS(=O)(=O)c3ccc4c5c(cccc35)C(=O)N4)cc12 | 12.6 µM [rising, single point] | 35.5 µM [rising, single point] |
| COC(=O)c1ccccc1NC(=O)Cc1nc(-c2ccccc2)sc1-c1ccc(C)cc1 |  | 22.4 µM [rising, single point] |
| CC1=CN2C(=N)/C(=C/c3ccc(Sc4ccc(Cl)cc4)o3)C(=O)N=C2S1 |  | 11.2 µM [rising, partial curve] |
| O=C(CCCC(=O)N(CC(=O)NC1CCCC1)C1CCCC1)Nc1ccccn1 |  | 35.5 µM [rising, single point] |
| Cc1ccc(C)c(OCC(=O)Nc2ccc(N3CCOCC3)cc2)c1 | 1.12 µM [falling, partial curve] | 15.8 µM [falling, partial curve, poor fit] |
| Fc1cccc(Cl)c1-c1nnc2ccc3ccccc3n12 | 22.4 µM [falling, single point] |  |
| Cc1ccc2c(N)c(C)ccc2c1 |  | 7.08 µM [rising, partial curve, poor fit] |
